{"sequences": {"note": "Amino acid sequences for entries named in this document (tags omitted). A change or cut given only in a name is not applied to a line headed by its entry.", "UniProt Q9BYV8": "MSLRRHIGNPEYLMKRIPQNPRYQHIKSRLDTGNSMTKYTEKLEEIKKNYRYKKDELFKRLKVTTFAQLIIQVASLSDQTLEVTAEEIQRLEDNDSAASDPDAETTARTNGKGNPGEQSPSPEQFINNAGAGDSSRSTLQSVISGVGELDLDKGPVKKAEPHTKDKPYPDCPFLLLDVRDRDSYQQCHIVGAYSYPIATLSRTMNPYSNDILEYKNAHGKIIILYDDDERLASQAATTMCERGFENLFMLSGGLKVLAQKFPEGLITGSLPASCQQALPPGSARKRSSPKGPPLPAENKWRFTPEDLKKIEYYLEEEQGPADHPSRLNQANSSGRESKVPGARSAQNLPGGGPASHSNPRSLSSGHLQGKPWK", "UniProt Q8IW35": "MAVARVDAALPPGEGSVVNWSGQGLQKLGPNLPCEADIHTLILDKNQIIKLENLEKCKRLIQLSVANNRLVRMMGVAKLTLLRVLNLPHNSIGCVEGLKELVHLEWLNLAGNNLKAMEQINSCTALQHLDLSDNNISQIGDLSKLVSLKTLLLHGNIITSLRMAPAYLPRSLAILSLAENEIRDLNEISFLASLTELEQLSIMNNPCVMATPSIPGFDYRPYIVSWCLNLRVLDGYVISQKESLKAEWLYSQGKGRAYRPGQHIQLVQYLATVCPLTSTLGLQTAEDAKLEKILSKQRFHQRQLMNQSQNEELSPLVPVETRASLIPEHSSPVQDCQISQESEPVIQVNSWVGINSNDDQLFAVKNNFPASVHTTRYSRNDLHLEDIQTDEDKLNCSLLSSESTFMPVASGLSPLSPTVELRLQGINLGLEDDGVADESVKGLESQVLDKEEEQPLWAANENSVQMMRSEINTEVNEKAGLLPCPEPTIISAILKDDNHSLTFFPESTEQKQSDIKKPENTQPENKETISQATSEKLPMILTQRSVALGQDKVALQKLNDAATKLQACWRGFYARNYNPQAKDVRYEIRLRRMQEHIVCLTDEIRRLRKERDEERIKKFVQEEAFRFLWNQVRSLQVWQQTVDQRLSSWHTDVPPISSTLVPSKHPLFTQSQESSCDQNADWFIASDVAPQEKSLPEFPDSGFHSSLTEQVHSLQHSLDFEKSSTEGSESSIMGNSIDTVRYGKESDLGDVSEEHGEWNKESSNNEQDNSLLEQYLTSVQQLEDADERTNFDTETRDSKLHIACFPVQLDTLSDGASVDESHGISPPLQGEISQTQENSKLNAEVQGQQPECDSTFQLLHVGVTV"}, "source": "the supplement of paper PMC12067093", "about": "“Discovery and optimisation of a covalent ligand for TRIM25 and its application to targeted protein ubiquitination” (Chemical Science, 2025)", "test_in_all_cases": "probe-labelled cysteine peptide fold change vs DMSO (competition) (log2 fold change); higher = less target engagement (more negative = stronger competition)", "conditions_in_all_cases": "THP-1, incubation time: 4 h", "key": {"[1]": {"molecular_target": "CEP41_Q9BYV8_187_DRDSYQQCHIVGAYSYPIATLSR (UniProt Q9BYV8)"}, "[2]": {"molecular_target": "CEP97_Q8IW35_599_MQEHIVCLTDEIR (UniProt Q8IW35)"}, "[3]": {"molecular_target": "CEP97_Q8IW35_599_MQEHIVCLTDEIRR (UniProt Q8IW35)"}}, "note": "The list shows a part of the results.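 Note: competitive chemoproteomic profiling in live THP-1 cells with an iodoacetamide desthiobiotin (IA-DTB) probe, comparing probe-labelled peptide intensities in compound-treated cells against DMSO-treated controls.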"}
{"smiles": "CC1Cc2ccccc2N1C(=O)C1CCCN(C(=O)CCl)C1", "note": "(mixture of isomers) [TRIM25 ligand 11 (diastereomer mixture)]", "values": [{"measurement": "probe-labelled cysteine peptide fold change", "setting": "[1]; 10 µM", "result": -0.0441}, {"measurement": "probe-labelled cysteine peptide fold change", "setting": "[1]; 50 µM", "result": 0.152}, {"measurement": "probe-labelled cysteine peptide fold change", "setting": "[2]; 10 µM", "result": 0.146}, {"measurement": "probe-labelled cysteine peptide fold change", "setting": "[2]; 50 µM", "result": -0.0961}, {"measurement": "probe-labelled cysteine peptide fold change", "setting": "[3]; 10 µM", "result": -0.287}, {"measurement": "probe-labelled cysteine peptide fold change", "setting": "[3]; 50 µM", "result": -0.188}]}
